Some of the results follow. Single values are uncertain, as repeats are few or missing.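 Cells were imaged in 1,536-well plates, and nuclei stained with an antibody against cleaved PARP were counted against all DNA-stained nuclei to give the apoptosis fraction. Screening doses were chosen to leave most cells alive, and resting and induced cleaved-PARP levels differ strongly between cell lines.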
tested on: COLO792; assay: cleaved PARP positive nuclei fraction relative to DMSO control; melanoma cells; higher = more apoptosis; settings: library dose: low library concentration; 72 h

Q: Which “cleaved PARP positive nuclei fraction” value does the source give for Cc1cc(N2CCOCC2)cc2[nH]c(-c3c(NC[C@@H](O)c4cccc(Cl)c4)cc[nH]c3=O)nc12 + O=C(Nc1ccccc1)c1cc([N+](=O)[O-])ccc1Cl [GW9662] (first compound 0.2 µM, partner dose 2 µM) here?
A: 87.1%

Q: With Nc1cccc2c1CN(C1CCC(=O)NC1=O)C2=O (stereo unspecified) [lenalidomide] + O=C(Nc1ccccc1)c1cc([N+](=O)[O-])ccc1Cl [GW9662] (first compound 1 µM, partner dose 2 µM) as the molecule, how does the “cleaved PARP positive nuclei fraction” value read?
A: 107%

Q: Which “cleaved PARP positive nuclei fraction” value does the source give for CC(C)(C)c1cnc(CSc2cnc(NC(=O)C3CCNCC3)s2)o1 + Oc1cc(-c2nc(-c3ccccc3)[nH]c2-c2ccncc2)ccc1Cl [L779450] (first compound 0.01 µM, partner dose 0.2 µM) here?
A: 118%

Q: Cc1nc(Nc2ncc(C(=O)Nc3c(C)cccc3Cl)s2)cc(N2CCN(CCO)CC2)n1 [dasatanib] + COC(=O)c1sccc1S(=O)(=O)Nc1ccc(Nc2ccccc2)cc1OC [GSK0660] (first compound 0.004 µM, partner dose 1 µM) was tested. Which “cleaved PARP positive nuclei fraction” value did it give?
A: 190%

Q: Which “cleaved PARP positive nuclei fraction” value does the source give for C#Cc1cccc(Nc2ncnc3cc(OCCOC)c(OCCOC)cc23)c1 [erlotinib] + O=C(O)C(=O)Nc1sc2c(c1C(=O)O)CCNC2 [TCS401] (first compound 0.8 µM, partner dose 1.66667 µM) here?
A: 64.6%

Q: With Cn1c(Nc2ccc(C(F)(F)F)cc2)nc2cc(Oc3ccnc(-c4ncc(C(F)(F)F)[nH]4)c3)ccc21 + CCCCCCCCCCCC1=C(O)C(=O)C=C(O)C1=O [Embelin] (first compound 0.08 µM, partner dose 1.2 µM) as the molecule, how does the “cleaved PARP positive nuclei fraction” value read?
A: 245%
